Assay results taken from PubChem BioAssay AID504444 (National Center for Advancing Translational Sciences (NCATS), 2011).
About 7,500 (2.1%) of roughly 360,000 compounds were called active. This list was built around the results that the source calls inconclusive (neither active nor inactive); the mix of calls is not that of the screen. Calls follow the shape of the dose curve; as a rule, active = well fitted inhibition curve with a large enough effect; inconclusive = small, poorly fitted or top-dose-only effect, or effect the other way; inactive = flat fitted curve, though single readings scatter. Potencies of inconclusive entries are doubtful fits and often do not repeat.

Test: Nrf2 qHTS screen for inhibitors; also: nearly all actives have a fitted effect of over 60% in size
Conditions: A549 ARE-Fluc reporter, luciferase luminescence, 18-24 h; activity change, negative = inhibition: at 46 µM (top of the series)
Summary of the method: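 Nrf2 activity is the BugLite luminescence, read 15 min after reagent at room temperature, following CellTiter-Fluor cytotoxicity readout (30 min, 37C). Compound titrations were applied for 18-24 h to 5000 A549 ARE_Fluc cells/well in 5% FBS OPTI-MEM.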
% is scaled to controls: 0 for no effect and ±100 for the full control effect; potency is read from the fitted curve at half-maximal effect.

Q: With COc1cc(N2CCC(O)CC2)ccc1Nc1nnc(Cl)c(Nc2ccccc2S(C)(=O)=O)n1 as the compound, how does the Potency read?
A: Its Potency is inconclusive: 23.1 µM [falling, partial curve, poor fit].

Q: With CCOC(=O)c1ccc(NS(=O)(=O)c2ccc3c(c2)CCN3C(=O)CC)cc1 as the compound, how does the Potency read?
A: Its Potency is active: 25.9 µM.

Q: With CC(=O)N1CCOc2ccc(S(=O)(=O)N3CCC(C(=O)Nc4ccccc4F)CC3)cc21 as the compound, how does the Potency read?
A: The Potency was inconclusive: 29.1 µM [falling, partial curve, poor fit].

Q: With O=C(OCc1ccccc1)N1CCC2CC1c1cc(NCCc3ccccc3)ccc12 (configuration not stated) as the compound, how does the Potency read?
A: Its Potency is inconclusive: 32.6 µM [activator, partial curve, poor fit].

Q: Which “activity change, negative = inhibition” value does the source give for Nn1c(SCc2ccc(F)cc2)nnc1-c1ccccn1 here?
A: Its value is inactive: 22.2%.

Q: For Cn1c(=O)c2[nH]c(CSCc3ccccc3)nc2n(C)c1=O, which Potency is on record?
A: Its Potency is inconclusive: 16.4 µM [falling, partial curve, poor fit].

Q: For CCN(CC)c1ccc(C(=C2C=CC(=[N+](CC)CC)C=C2)c2ccc(N(CC)CC)cc2)cc1, which Potency is on record?
A: The Potency was active: 5.8 µM.

Q: Which Potency does the source give for COc1ccccc1N1CCN(/N=C/c2ccc(C(=O)O)cc2)CC1 here?
A: The Potency was inconclusive: 1.46 µM [activator, full curve].

Q: With Cc1cc(C)cc(NC(=O)C(=O)NCC(c2cccnc2)N2CCOCC2)c1 (configuration not stated) as the compound, how does the Potency read?
A: Its Potency is inconclusive: 25.9 µM [falling, single point].

Q: Which Potency does the source give for CCc1ccccc1S(=O)(=O)Cc1ccc(C(=O)N2CCN(c3ccccc3OC)CC2)o1 here?
A: Its Potency is inconclusive: 29.1 µM [falling, single point].

Q: Which Potency does the source give for CC(=O)Nc1ccc(NC(=O)CN2C(=O)COc3ccc(S(=O)(=O)N4CCCCC4)cc32)cc1 here?
A: The Potency was inconclusive: 16.4 µM [activator, single point].

Q: For Nc1nc(CSC(=S)N2CCN(c3ccccc3)CC2)nc(Nc2ccccc2)n1, which Potency is on record?
A: Its Potency is active: 16.4 µM.

Q: For O=C(NCCc1ccc(Cl)cc1)C12CC3CC(CC(O)(C3)C1)C2, which Potency is on record?
A: The Potency was inconclusive: 9.2 µM [activator, partial curve].

Q: Which Potency does the source give for Cc1c(Cl)cccc1NC(=O)COC(=O)c1c2c(nc3ccccc13)CCN(Cc1ccccc1)C2 here?
A: The Potency was active: 20.6 µM.

Q: With Oc1ccccc1-c1nc(NCC2CCCO2)c2ccccc2n1 (configuration not stated) as the compound, how does the Potency read?
A: The Potency was inconclusive: 20.6 µM [falling, single point].

Q: For CCOC(=O)c1ccc(NC(=O)C2=C(C)C(=O)OC23CCN(C(C)=O)CC3)cc1, which “activity change, negative = inhibition” value is on record?
A: Its value is inactive: 21.9%.

Q: For Cc1c([N+](=O)[O-])cnc(Sc2ccccc2)c1[N+](=O)[O-], which “activity change, negative = inhibition” value is on record?
A: The value was inactive: 0.61%.

Q: With COc1cc(Nc2nc3ccc(Cl)cc3nc2-n2nc(C)cc2C)cc(OC)c1 as the compound, how does the “activity change, negative = inhibition” value read?
A: Its value is inactive: 0.642%.

Q: For Cc1cc(C)c2cc(C)c(SCC(=O)NCc3ccco3)nc2c1, which Potency is on record?
A: The Potency was inconclusive: 32.6 µM [falling, single point].

Q: With CCOC(=O)c1cccc(NC(=O)c2cc(C)nc3c2c(C)nn3-c2ccc(C)cc2)c1 as the compound, how does the Potency read?
A: Its Potency is inconclusive: 29.1 µM [falling, single point].

Q: With O=C(Nc1ccc2oc(-c3ccccc3)nc2c1)c1cc(-n2cnnc2)ccc1Cl as the compound, how does the Potency read?
A: Its Potency is inconclusive: 10.3 µM [falling, partial curve, poor fit].

Q: Which Potency does the source give for CC(=O)Nc1ccc(/C(C)=N/Nc2nc(Nc3cccc4ccccc34)nc(N3CCOCC3)n2)cc1 here?
A: Its Potency is inconclusive: 29.1 µM [falling, single point].

Q: Which Potency does the source give for CC(=O)c1sc2nc(-c3ccc(C)cc3)c3c(c2c1N)CCCC3 here?
A: The Potency was inconclusive: 11.6 µM [falling, partial curve, poor fit].

Q: For O=C(CN1C(=O)COc2ccc(S(=O)(=O)NC3CCCC3)cc21)NCc1ccccc1Cl, which “activity change, negative = inhibition” value is on record?
A: Its value is inactive: 13.2%.

Q: For CCCCNC(=O)Nc1nc2ccc(CC)cc2s1, which Potency is on record?
A: Its Potency is inconclusive: 2.91 µM [activator, single point].

Q: With COc1ccc(S(=O)(=O)N2CCCCC2)cc1NC(=O)COC(=O)c1ccco1 as the compound, how does the “activity change, negative = inhibition” value read?
A: Its value is inactive: 1.67%.

Q: For CCC(C)NCCCCOc1ccc(Cl)cc1C (configuration not stated), which “activity change, negative = inhibition” value is on record?
A: The value was inactive: 16.9%.

Q: Which Potency does the source give for CCCCCCN=C(C)C1=C(O)C(C(=O)OC)C(C)(C)CC1=O (configuration not stated) here?
A: The Potency was inconclusive: 6.51 µM [activator, single point].

Q: With CCN(CC)S(=O)(=O)c1ccc(Cl)c(NC(=O)c2ccccc2C)c1 as the compound, how does the Potency read?
A: The Potency was inconclusive: 14.6 µM [activator, partial curve].

Q: Which “activity change, negative = inhibition” value does the source give for COc1cc(OC)cc(C(=O)Nc2nc3ccc(S(C)(=O)=O)cc3s2)c1 here?
A: Its value is inactive: 4.67%.

Q: Which Potency does the source give for CCN(CC(=O)Nc1ccc(C)c(S(=O)(=O)N2CCOCC2)c1)Cc1ccccc1 here?
A: Its Potency is inconclusive: 18.4 µM [falling, partial curve, poor fit].

Q: For CCOC(=O)[C@H]1[C@H]2COc3ccc(Br)cc3[C@H]2N2C(=O)CN(Cc3ccc(C)cc3)C(=O)[C@@]12C, which “activity change, negative = inhibition” value is on record?
A: The value was inactive: -8.3%.

Q: With CC(=O)c1ccc(S(=O)(=O)N2CCCC2)cc1 as the compound, how does the Potency read?
A: The Potency was inconclusive: 18.4 µM [activator, partial curve].

Q: For CCCOc1ccc(C(=O)NNC(=S)NC(=O)c2cc(-c3ccccc3)nc3ccccc23)cc1, which Potency is on record?
A: Its Potency is inconclusive: 20.6 µM [falling, single point].

Q: With CCOc1cc(NC(=S)NCC2CCCO2)c(OCC)cc1NC(=O)c1cccc(C)c1 (configuration not stated) as the compound, how does the Potency read?
A: Its Potency is inconclusive: 2.06 µM [falling, full curve, poor fit].

Q: With O=C(CCC1COc2ccccc2O1)Nc1ccc(Cl)cn1 (configuration not stated) as the compound, how does the Potency read?
A: The Potency was inconclusive: 20.6 µM [falling, single point].

Q: With Cc1ccnc(NS(=O)(=O)c2ccc(NC(=O)CN3C(=O)c4ccccc4S3(=O)=O)cc2)n1 as the compound, how does the Potency read?
A: Its Potency is inconclusive: 29.1 µM [activator, single point].

Q: With COc1ccc(-c2sc3ccc(N4CCOCC4)cc3c2C#CC(C)(C)O)cc1 as the compound, how does the “activity change, negative = inhibition” value read?
A: The value was inactive: 7.33%.

Q: Which Potency does the source give for C/C(=N\NC(=O)c1ccc(NS(=O)(=O)c2cccs2)cc1)c1ccc2ccccc2c1 here?
A: Its Potency is inconclusive: 1.16 µM [activator, full curve].

Q: With CC1CN=C(N(Cc2ccccc2)C(=O)Nc2ccccc2)S1 (configuration not stated) as the compound, how does the Potency read?
A: Its Potency is inconclusive: 2.91 µM [activator, partial curve, poor fit].

Q: For Cc1ccc(NC(=O)Cn2c(=O)n(CCC(C)C)c(=O)c3cccnc32)cc1C, which “activity change, negative = inhibition” value is on record?
A: Its value is inactive: 9.08%.

Q: With CCOC(=O)c1sc(=S)n(CC)c1NC(=O)c1ccccc1C as the compound, how does the Potency read?
A: Its Potency is inconclusive: 29.1 µM [falling, single point].
